Where “and” joins values, the source holds several entries; their conditions need not be identical. Identical values can stand only once. Counter-ions that a name gives are not always drawn. ± gives the standard deviation of the averaged measurements. Some of the results follow. Repeats are few or missing, and single values can be far off.
Test system: RAW 264.7
Experiment: HMGB1-induced TNF-alpha production relative to HMGB1-stimulated control; higher = more TNF-alpha secretion (less inhibition)
Details: stimulus: HMGB1 5 ug/ml, 18 h
[1] = compound concentration: 1 ug/ml

Compound	HMGB1-induced TNF-alpha production (compound concentration: 3 uM)	HMGB1-induced TNF-alpha production [1] [%]
COCCCOc1ccnc(C[S+]([O-])c2nc3ccccc3[nH]2)c1C (centres undefined) [Rabeprazole]	103%	–
O=C(O)Cc1cc(I)c(Oc2ccc(O)c(I)c2)c(I)c1 [Tiratricol, 3,3',5-triiodothyroacetic acid]	69.2%	–
O=C(O)Cc1cc(I)c(Oc2ccc(O)c(I)c2)c(I)c1	102%	–
NS(=O)(=O)C#Cc1ccccc1 [Pifithrin-mu]	49.4%	–
Nc1c(S(=O)(=O)O)cc(Nc2ccc(Nc3nc(Cl)nc(Nc4cccc(S(=O)(=O)O)c4)n3)c(S(=O)(=O)O)c2)c2c1C(=O)c1ccccc1C2=O [Reactive Blue 2]	90.7%	–
CSc1nc(N)c2ncn([C@@H]3O[C@H](COP(=O)(O)OP(=O)(O)O)[C@H](O)C3O)c2n1 (some centres undefined)	97%	–
Cc1ccc(C(=O)C(C)CN2CCCCC2)cc1 (centres undefined)	86.5%	–
CNCC[C@@H](Oc1ccccc1C)c1ccccc1	50.7%	–
CNCC[C@@H](Oc1ccccc1C)c1ccccc1 [Tomoxetine]	105%	–
CNCC[C@@H](Oc1ccccc1C)c1ccccc1 [Tomoxetine hydrochloride]	110%	–
c1ccc(CN2CCC3(CCCc4ccccc43)CC2)cc1 [L-687,384 hydrochloride]	92.1%	–
O=C(CCCCC(=O)Nc1c(I)cc(I)c(C(=O)O)c1I)Nc1c(I)cc(I)c(C(=O)O)c1I [Iodipamide]	109%	–
O=C(CCCCC(=O)Nc1c(I)cc(I)c(C(=O)O)c1I)Nc1c(I)cc(I)c(C(=O)O)c1I	86.4%	–
C[C@@H]1O[C@@H](O[C@H]2[C@H](Oc3cc(O)c4c(c3)O[C@H](c3ccc(O)cc3)CC4=O)O[C@H](CO)[C@@H](O)[C@@H]2O)[C@H](O)[C@H](O)[C@H]1O [Naringin]	–	82
N=C(N=C(N)N)N1CCOCC1 [Moroxidine hydrochloride]	89%	–
CC(=O)OCC(=O)[C@@]12OC3(CCCC3)O[C@@H]1C[C@H]1[C@@H]3CCC4=CC(=O)C=C[C@]4(C)[C@@]3(F)[C@@H](O)C[C@@]12C [Amcinonide]	46.6%	–
CC(=O)OCC(=O)[C@@]12OC3(CCCC3)O[C@@H]1C[C@H]1[C@@H]3CCC4=CC(=O)C=C[C@]4(C)[C@@]3(F)[C@@H](O)C[C@@]12C	43.4%	–
C[C@@H]1O[C@@H](OC[C@H]2O[C@@H](Oc3c(-c4ccc(O)c(O)c4)oc4cc(O)cc(O)c4c3=O)[C@H](O)[C@@H](O)[C@@H]2O)[C@H](O)[C@H](O)[C@H]1O [Rutin]	–	76.9
C[C@@H]1O[C@@H](OC[C@H]2O[C@@H](Oc3c(-c4ccc(O)c(O)c4)oc4cc(O)cc(O)c4c3=O)[C@H](O)[C@@H](O)[C@@H]2O)[C@H](O)[C@H](O)[C@H]1O [Rutine]	–	60.9
C[C@@H]1O[C@@H](OC[C@H]2O[C@@H](Oc3c(-c4ccc(O)c(O)c4)oc4cc(O)cc(O)c4c3=O)[C@H](O)[C@@H](O)[C@@H]2O)[C@H](O)[C@H](O)[C@H]1O	102%	–
C[C@@H]1O[C@@H](OC[C@H]2O[C@@H](Oc3c(-c4ccc(O)c(O)c4)oc4cc(O)cc(O)c4c3=O)[C@H](O)[C@@H](O)[C@@H]2O)[C@H](O)[C@H](O)[C@H]1O [RUTOSIDE (rutin)]	101%	–
CCCC(=O)Nc1ccc(OCC(O)CNC(C)C)c(C(C)=O)c1 (centres undefined) [Acebutolol hydrochloride]	58.6%	–
CCCC(=O)Nc1ccc(OCC(O)CNC(C)C)c(C(C)=O)c1 (centres undefined)	95%	–
CC(=O)Nc1ccc(OCC(O)CNC(C)C)cc1 (centres undefined) [Practolol]	85 ± 16%	–
CN1[C@@H]2CC[C@H]1C[C@@H](OC(c1ccccc1)c1ccccc1)C2	99.6%	–
CN1[C@@H]2CC[C@H]1C[C@@H](OC(c1ccccc1)c1ccccc1)C2 [Benztropine mesylate]	93.8 ± 27%	–
O=C(Nc1ccccc1)OCC(CN1CCCCC1)OC(=O)Nc1ccccc1 (centres undefined) [Diperodon hydrochloride]	67.2%	–

Compound	HMGB1-induced TNF-alpha production (compound concentration: 3 uM)	HMGB1-induced TNF-alpha production [1] [%]
O=C(Nc1ccccc1)OCC(CN1CCCCC1)OC(=O)Nc1ccccc1 (centres undefined)	58.9%	–
CC1(C)C(=O)N(CCN2CCC(C(=O)c3ccc(F)cc3)CC2)c2ccccc21 [LY-310,762 hydrochloride]	118%	–
CCN(CC)CC1CCCCN1CC(=O)N1c2ccccc2C(=O)Nc2cccnc21 (centres undefined)	108%	–
CC#CCC(C)[C@H](O)/C=C/[C@@H]1[C@H]2C/C(=C/CCCC(=O)O)C[C@H]2C[C@H]1O (some centres undefined) [Iloprost]	70.8%	–
O[C@H]1CCN2Cc3ccccc3N=C12 [Peganine HCl]	–	80.3
O=C(O)c1cn(C2CC2)c2cc(N3CCNCC3)c(F)cc2c1=O [Ciprofloxacin hydrochloride]	78.2%	–
O=C(O)c1cn(C2CC2)c2cc(N3CCNCC3)c(F)cc2c1=O	87.8 ± 1.6%	–
O=C(O)c1cn(C2CC2)c2cc(N3CCNCC3)c(F)cc2c1=O [Ciprofloxacin]	75.6%	–
CCCn1c(=O)[nH]c(=O)c2[nH]cnc21 [3-n-Propylxanthine]	108%	–
O=c1cc(-c2ccc(O)cc2O)oc2ccccc12	–	20.9
OC[C@H]1O[C@@H](n2cnc3c(NC4CCCC4)ncnc32)[C@H](O)[C@@H]1O [N6-Cyclopentyladenosine]	90%	–
C[N+](C)(C)CC=O [Betaine aldehyde chloride]	59.6%	–
Cn1c(=O)[nH]c2ncn(C)c2c1=O [1,7-Dimethylxanthine]	80.2%	–
C1COC(NC(C2CC2)C2CC2)=N1 [Rilmenidine]	91.1%	–
C1COC(NC(C2CC2)C2CC2)=N1 [Rilmenidine hemifumarate]	115%	–
Cc1cc(C(C)(C)C)c(O)c(C(C)(C)C)c1	66.6%	–
COc1ccc(-c2cc(=S)ss2)cc1 [Anethole-trithione]	89.3 ± 7.8%	–
COc1cc(C(=O)NCc2ccc(OCCN(C)C)cc2)cc(OC)c1OC [Trimethobenzamide hydrochloride]	60.2%	–
COc1cc(C(=O)NCc2ccc(OCCN(C)C)cc2)cc(OC)c1OC	93.4%	–
CCCN1CCCC[C@H]1C(=O)Nc1c(C)cccc1C	101%	–
Cc1ccc(S(=O)(=O)N[C@@H](Cc2ccccc2)C(=O)CCl)cc1 [N-p-Tosyl-L-phenylalanine chloromethyl ketone]	70.9%	–
NC1CCN(c2cccc(Cl)n2)CC1	94.9% and 119%	–
C[C@@H]1CC[C@H]2[C@](C)(CO)[C@@H](O)CC[C@]2(C)[C@@]12CC[C@@](CO)(CCO)O2 [Lagochiline]	–	88.8
C1CCC(C(CC2CCCCN2)C2CCCCC2)CC1 (centres undefined) [Perhexiline maleate]	53.2%	–
C1CCC(C(CC2CCCCN2)C2CCCCC2)CC1 (centres undefined)	89.2%	–
CN1CC(=O)N2[C@H](c3ccc4c(c3)OCO4)c3[nH]c4ccccc4c3C[C@@H]2C1=O	70.8 ± 31%	–
CC(C)NCC(O)COc1ccc(CCOCC2CC2)cc1 (centres undefined)	110%	–

Compound	HMGB1-induced TNF-alpha production (compound concentration: 3 uM)	HMGB1-induced TNF-alpha production [1] [%]
CC(C)NCC(O)COc1ccc(CCOCC2CC2)cc1 (centres undefined) [Betaxolol]	96.1%	–
CC(C)NCC(O)COc1ccc(CCOCC2CC2)cc1 (centres undefined) [Betaxolol hydrochloride]	72.5 ± 12%	–
CC(=O)[C@@]1(O)CC[C@H]2[C@@H]3C[C@H](C)C4=CC(=O)C=C[C@]4(C)[C@@]3(F)[C@@H](O)C[C@@]21C	39.6%	–
CC(=O)[C@@]1(O)CC[C@H]2[C@@H]3C[C@H](C)C4=CC(=O)C=C[C@]4(C)[C@@]3(F)[C@@H](O)C[C@@]21C [Fluorometholone]	39.3%	–
CCc1nc(N)nc(N)c1-c1ccc(Cl)cc1	82.1%	–
CCc1nc(N)nc(N)c1-c1ccc(Cl)cc1 [Pyrimethamine]	64.7%	–
Cc1c(C(=O)NN2CCCCC2)nn(-c2ccc(Cl)cc2Cl)c1-c1ccc(I)cc1	110%	–
O=c1ccn2c(n1)O[C@H]1[C@H](O)[C@@H](CO)O[C@H]12 [O2,2'-Cyclouridine]	–	88.7
C[C@H]1c2cccc(O)c2C(=O)C2=C(O)[C@]3(O)C(=O)C(C(N)=O)=C(O)[C@@H](N(C)C)[C@@H]3[C@@H](O)[C@@H]21 [Doxycycline]	90.9%	–
C[C@H]1c2cccc(O)c2C(=O)C2=C(O)[C@]3(O)C(=O)C(C(N)=O)=C(O)[C@@H](N(C)C)[C@@H]3[C@@H](O)[C@@H]21	80.6%	–
C[C@H]1c2cccc(O)c2C(=O)C2=C(O)[C@]3(O)C(=O)C(C(N)=O)=C(O)[C@@H](N(C)C)[C@@H]3[C@@H](O)[C@@H]21 [Doxycycline hydrochloride]	94.5 ± 13%	–
Clc1ccc(C(Cn2ccnc2)OCc2ccsc2Cl)c(Cl)c1 (centres undefined)	63.6%	–
Clc1ccc(C(Cn2ccnc2)OCc2ccsc2Cl)c(Cl)c1 (centres undefined) [Tioconazole]	60.6 ± 4.3%	–
O=C(O)CNC(=O)C(CS)Cc1ccccc1 (racemic) [DL-Thiorphan]	109%	–
CCCC1C(=O)N2C(N(C)C)=Nc3ccc(C)cc3N2C1=O (centres undefined) [Azapropazone]	95.5%	–
c1cnc(N2CCN(Cc3ccc4c(c3)OCO4)CC2)nc1 [Piribedil hydrochloride]	96.7%	–
c1cnc(N2CCN(Cc3ccc4c(c3)OCO4)CC2)nc1	77%	–
c1cnc(N2CCN(Cc3ccc4c(c3)OCO4)CC2)nc1 [Piribedil maleate]	99.1%	–
c1cnc(N2CCN(Cc3ccc4c(c3)OCO4)CC2)nc1 [Piribedil]	115 ± 5.8%	–
C[C@](N)(Cc1ccc(O)c(O)c1)C(=O)O [Methyldopa]	81.3%	–
C[C@](N)(Cc1ccc(O)c(O)c1)C(=O)O [Methyldopa (L,-)]	81.7%	–
C[C@](N)(Cc1ccc(O)c(O)c1)C(=O)O	81.7%	–
C[C@](N)(Cc1ccc(O)c(O)c1)C(=O)O [L-alpha-Methyl DOPA]	113%	–
C/C(=C\CNc1ncnc2nc[nH]c12)CO [trans-Zeatin]	–	62
COc1cc2c(C)cc(=O)oc2cc1Cl	–	82.8
